According to the supplement of paper PMC10849652:
The other results are listed elsewhere or left out.

Amino acid sequences for entries named in this document (tags omitted). A change or cut given only in a name is not applied to a line headed by its entry.
UniProt P49917: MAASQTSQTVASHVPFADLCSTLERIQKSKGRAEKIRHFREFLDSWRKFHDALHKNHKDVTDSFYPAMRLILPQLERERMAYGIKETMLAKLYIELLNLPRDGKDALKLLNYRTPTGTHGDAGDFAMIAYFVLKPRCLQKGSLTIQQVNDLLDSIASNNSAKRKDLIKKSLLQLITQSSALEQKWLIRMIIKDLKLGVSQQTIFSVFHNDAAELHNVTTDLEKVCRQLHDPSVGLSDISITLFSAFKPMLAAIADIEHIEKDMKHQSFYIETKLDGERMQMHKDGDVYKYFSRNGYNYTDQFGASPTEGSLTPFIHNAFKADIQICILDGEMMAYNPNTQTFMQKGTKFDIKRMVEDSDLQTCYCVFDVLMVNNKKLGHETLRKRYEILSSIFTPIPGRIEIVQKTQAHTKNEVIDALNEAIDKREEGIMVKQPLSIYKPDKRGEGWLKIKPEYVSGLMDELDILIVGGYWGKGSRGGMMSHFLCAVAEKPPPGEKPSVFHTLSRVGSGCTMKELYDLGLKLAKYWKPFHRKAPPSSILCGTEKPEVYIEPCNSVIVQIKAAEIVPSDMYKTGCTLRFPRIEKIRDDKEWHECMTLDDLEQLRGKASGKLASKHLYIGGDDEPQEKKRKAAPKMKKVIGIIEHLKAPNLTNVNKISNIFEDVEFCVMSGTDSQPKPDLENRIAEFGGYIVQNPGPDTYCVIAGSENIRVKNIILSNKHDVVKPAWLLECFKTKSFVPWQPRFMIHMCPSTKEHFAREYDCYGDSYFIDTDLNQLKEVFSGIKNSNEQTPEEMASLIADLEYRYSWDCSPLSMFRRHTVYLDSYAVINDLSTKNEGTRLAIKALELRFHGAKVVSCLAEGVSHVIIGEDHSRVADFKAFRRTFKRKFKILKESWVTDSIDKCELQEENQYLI
UniProt Q9UGP4: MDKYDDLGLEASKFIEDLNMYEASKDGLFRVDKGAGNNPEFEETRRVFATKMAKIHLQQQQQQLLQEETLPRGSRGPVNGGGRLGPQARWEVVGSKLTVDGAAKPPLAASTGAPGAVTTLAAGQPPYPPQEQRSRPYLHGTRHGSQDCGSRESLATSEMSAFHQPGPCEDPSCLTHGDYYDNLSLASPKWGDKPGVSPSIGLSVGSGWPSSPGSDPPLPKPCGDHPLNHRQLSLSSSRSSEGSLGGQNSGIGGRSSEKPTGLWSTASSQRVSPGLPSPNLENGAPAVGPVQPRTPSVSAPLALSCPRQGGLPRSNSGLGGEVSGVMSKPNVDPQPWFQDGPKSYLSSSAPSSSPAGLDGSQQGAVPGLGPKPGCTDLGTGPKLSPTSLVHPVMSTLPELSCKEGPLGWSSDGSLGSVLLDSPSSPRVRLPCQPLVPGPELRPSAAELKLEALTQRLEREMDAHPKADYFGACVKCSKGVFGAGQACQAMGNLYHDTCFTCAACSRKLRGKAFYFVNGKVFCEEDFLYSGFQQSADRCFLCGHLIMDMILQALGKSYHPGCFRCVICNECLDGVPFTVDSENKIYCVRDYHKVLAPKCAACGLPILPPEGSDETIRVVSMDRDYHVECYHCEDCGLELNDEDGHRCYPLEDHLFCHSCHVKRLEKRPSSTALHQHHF
UniProt Q7L1W4: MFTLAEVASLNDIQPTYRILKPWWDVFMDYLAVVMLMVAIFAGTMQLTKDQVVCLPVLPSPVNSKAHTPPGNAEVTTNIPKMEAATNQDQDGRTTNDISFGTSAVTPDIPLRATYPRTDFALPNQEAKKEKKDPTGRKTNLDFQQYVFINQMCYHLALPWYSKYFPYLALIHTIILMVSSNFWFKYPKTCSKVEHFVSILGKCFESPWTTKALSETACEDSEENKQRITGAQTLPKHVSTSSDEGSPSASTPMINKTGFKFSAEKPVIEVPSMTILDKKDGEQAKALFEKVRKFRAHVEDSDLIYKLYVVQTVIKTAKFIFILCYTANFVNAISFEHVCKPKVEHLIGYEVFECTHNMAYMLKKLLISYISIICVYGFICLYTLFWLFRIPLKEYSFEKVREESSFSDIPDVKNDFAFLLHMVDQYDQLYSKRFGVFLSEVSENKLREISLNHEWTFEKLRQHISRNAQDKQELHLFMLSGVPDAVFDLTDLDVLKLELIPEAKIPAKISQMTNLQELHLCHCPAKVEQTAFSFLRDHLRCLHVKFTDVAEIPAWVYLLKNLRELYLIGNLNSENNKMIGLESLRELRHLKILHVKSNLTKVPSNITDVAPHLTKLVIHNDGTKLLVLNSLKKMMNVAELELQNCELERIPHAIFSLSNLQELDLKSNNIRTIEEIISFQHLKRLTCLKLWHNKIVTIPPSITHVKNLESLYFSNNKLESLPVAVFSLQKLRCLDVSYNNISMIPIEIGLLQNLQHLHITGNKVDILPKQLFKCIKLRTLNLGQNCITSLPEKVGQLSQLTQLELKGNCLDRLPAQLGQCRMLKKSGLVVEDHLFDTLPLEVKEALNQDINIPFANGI
UniProt Q9NUN5: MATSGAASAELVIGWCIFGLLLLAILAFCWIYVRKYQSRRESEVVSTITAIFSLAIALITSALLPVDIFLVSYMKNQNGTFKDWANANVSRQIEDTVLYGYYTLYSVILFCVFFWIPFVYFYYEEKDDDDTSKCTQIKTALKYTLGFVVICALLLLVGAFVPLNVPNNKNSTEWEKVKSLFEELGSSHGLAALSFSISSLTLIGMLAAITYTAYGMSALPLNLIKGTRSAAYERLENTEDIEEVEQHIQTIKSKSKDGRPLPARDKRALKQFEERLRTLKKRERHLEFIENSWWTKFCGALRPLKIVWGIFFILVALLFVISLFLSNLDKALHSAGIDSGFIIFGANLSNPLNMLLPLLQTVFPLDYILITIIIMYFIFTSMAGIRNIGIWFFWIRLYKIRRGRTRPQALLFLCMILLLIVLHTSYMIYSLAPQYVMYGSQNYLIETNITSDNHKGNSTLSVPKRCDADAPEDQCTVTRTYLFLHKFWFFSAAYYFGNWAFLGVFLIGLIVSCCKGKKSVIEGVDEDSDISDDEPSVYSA
UniProt Q13094: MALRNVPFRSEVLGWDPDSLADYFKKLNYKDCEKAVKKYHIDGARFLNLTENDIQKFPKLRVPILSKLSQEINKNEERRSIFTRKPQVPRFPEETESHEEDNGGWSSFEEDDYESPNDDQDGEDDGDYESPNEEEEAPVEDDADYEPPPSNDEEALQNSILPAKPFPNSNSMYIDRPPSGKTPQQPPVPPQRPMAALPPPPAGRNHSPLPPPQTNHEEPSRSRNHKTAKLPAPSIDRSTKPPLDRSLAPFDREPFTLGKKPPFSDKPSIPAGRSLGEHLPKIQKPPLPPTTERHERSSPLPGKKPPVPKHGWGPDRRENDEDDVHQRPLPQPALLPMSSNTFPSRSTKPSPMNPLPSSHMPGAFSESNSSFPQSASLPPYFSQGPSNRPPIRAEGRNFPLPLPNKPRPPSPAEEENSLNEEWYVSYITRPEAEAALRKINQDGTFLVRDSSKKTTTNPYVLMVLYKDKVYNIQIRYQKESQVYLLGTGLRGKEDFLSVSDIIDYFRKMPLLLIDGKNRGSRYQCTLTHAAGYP
UniProt Q32MZ4: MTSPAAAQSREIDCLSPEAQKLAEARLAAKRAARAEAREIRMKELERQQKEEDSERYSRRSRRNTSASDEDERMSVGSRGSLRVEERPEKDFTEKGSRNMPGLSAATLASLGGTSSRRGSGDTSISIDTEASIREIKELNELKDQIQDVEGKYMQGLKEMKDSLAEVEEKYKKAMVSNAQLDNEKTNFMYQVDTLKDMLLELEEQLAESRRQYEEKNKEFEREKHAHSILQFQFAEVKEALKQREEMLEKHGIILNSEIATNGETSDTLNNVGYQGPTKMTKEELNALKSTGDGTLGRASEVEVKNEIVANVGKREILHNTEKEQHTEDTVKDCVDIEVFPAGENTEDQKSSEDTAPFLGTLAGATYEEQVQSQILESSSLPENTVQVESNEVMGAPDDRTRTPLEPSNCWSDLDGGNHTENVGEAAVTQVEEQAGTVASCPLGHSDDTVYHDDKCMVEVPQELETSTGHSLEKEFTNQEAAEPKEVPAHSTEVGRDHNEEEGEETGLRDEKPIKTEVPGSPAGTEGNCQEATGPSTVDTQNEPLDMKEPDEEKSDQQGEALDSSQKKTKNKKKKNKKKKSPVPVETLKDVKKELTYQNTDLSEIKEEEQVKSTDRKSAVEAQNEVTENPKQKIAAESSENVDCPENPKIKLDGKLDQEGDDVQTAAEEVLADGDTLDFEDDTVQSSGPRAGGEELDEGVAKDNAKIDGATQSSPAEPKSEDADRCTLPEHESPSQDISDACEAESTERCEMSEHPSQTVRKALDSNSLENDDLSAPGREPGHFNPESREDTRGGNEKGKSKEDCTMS
UniProt Q14693: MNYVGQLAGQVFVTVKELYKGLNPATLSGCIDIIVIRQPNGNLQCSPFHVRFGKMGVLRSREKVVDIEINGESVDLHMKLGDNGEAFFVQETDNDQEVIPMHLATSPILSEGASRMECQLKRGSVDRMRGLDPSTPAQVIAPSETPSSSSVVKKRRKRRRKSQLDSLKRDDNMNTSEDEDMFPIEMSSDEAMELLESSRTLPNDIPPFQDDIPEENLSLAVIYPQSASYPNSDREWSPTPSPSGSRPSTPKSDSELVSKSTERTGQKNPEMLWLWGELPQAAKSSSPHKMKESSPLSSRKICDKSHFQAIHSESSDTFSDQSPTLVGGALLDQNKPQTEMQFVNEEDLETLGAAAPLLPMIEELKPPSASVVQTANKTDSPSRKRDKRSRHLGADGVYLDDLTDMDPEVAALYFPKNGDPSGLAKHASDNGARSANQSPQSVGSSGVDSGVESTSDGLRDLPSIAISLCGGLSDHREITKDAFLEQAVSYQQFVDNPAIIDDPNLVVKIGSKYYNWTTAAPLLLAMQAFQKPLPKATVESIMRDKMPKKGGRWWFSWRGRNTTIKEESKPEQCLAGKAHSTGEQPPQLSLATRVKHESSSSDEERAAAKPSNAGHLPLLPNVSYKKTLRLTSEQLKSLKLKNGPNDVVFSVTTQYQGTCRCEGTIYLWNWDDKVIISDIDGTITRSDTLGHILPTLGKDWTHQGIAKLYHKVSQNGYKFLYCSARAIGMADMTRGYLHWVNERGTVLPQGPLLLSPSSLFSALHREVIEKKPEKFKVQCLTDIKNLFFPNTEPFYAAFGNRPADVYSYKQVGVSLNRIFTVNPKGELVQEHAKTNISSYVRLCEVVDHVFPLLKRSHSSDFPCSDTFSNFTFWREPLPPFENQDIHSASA
UniProt Q8ND56: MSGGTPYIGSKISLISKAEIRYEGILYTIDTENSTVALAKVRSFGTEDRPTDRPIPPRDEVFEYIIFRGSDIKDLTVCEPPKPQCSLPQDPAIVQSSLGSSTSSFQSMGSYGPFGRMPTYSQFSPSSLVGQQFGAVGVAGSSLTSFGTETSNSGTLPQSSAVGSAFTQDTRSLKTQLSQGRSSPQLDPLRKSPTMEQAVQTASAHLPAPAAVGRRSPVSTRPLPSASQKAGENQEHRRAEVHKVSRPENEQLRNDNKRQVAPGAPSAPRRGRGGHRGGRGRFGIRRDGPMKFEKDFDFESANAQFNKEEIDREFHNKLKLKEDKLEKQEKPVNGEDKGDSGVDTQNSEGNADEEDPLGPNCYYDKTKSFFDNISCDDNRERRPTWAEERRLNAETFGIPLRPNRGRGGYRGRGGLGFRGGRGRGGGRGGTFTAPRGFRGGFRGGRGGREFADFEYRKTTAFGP

How the values were obtained:
Experiment in all cases: log2 fold change, soluble protein after heating vs DMSO (PISA); higher = thermal stabilisation; K562 lysate, 10 uM; active = over 0.2 and 3.5 SD of the protein, either way, in both replicates (recomputed)
ibrutinib = compound: C=CC(=O)N1CCC[C@@H](n2nc(-c3ccc(Oc4ccccc4)cc3)c3c(N)ncnc32)C1 [ibrutinib]
Method in brief: (§1)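 To prepare the extract, K562 pellets were dounce-homogenised in PBS pH 7.4 with 1 mM MgCl2, giving crude material at 1 mg/mL protein. This was treated with 10 μM compound for 30 min, then heated in aliquots for 3 min over 48°C-58°C before pooling and addition of NP-40 to 0.5% at 4°C. Centrifugation at 21,000xg for 90 min left soluble protein in the supernatant, which TMTpro 16plex LC-MS/MS quantified with equalised channel sums. Results are log-two fold changes in thermal stability compared with solvent controls, from duplicates.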

[1] = compound: CC(=O)c1cnc2ccc(-c3cc(Cl)c(O)c(Cl)c3)nc2c1N[C@H]1CC[C@H](CN(C)C)CC1
Method in brief: as §1

ralimetinib = compound: CC(C)(C)Cn1c(N)nc2ccc(-c3[nH]c(C(C)(C)C)nc3-c3ccc(F)cc3)nc21 [ralimetinib]
Method in brief: as §1

[2] = compound: CC(C)(O)CC(=O)NCCn1ccc2ncnc(Nc3ccc(Oc4cccc(C(F)(F)F)c4)c(Cl)c3)c21
Method in brief: as §1

[3] = compound: CC(C)C1=C2N=C(C=C(N2N=C1)NCC3=CC=CC=C3)NCCCCCCN
Method in brief: as §1

[4] = compound: CC1=C(C(CC(=O)N1)C2=CC=C(C=C2)C(F)(F)F)C(=O)NC3=C(C=C4C(=C3)C=NN4)F
Method in brief: as §1

[5] = compound: CC1=C(C2=C(C=C1)C(=O)C3=CC=CC=C3N2CCCN)C
Method in brief: as §1

[6] = compound: CC1=C(C=C(C=C1)NC(=O)C2=CC(=CC=C2)C(C)(C)C#N)NC3=CC4=C(C=C3)N=CN(C4=O)C
Method in brief: as §1

[7] = compound: CC1=C(C=C(C=C1)NC(=O)C2=CC(=CC=C2)N(C)C)NC(=O)C3=CC=C(C=C3)O
Method in brief: as §1

[8] = compound: CC1=CC=C(C=C1)SC2=C3C=C(SC3=CN=C2)C(=O)N
Method in brief: as §1

vemurafenib = compound: CCCS(=O)(=O)Nc1ccc(F)c(C(=O)c2c[nH]c3ncc(-c4ccc(Cl)cc4)cc23)c1F [vemurafenib]
Method in brief: as §1

[9] = compound: CCCS(=O)(=O)Nc1ccc(F)c(C(=O)c2c[nH]c3ncc(Cl)cc23)c1F
Method in brief: as §1

barasertib = compound: CCN(CCCOc1ccc2c(Nc3cc(CC(=O)Nc4cccc(F)c4)[nH]n3)ncnc2c1)CCOP(=O)(O)O [barasertib]
Method in brief: as §1

[10] = compound: CC[C@@H]1C(=O)N(C)c2cnc(Nc3ccc(C(=O)NC4CCN(C)CC4)cc3OC)nc2N1C1CCCC1
Method in brief: as §1

volasertib = compound: CC[C@@H]1C(=O)N(C)c2cnc(Nc3ccc(C(=O)N[C@H]4CC[C@H](N5CCN(CC6CC6)CC5)CC4)cc3OC)nc2N1C(C)C [volasertib]
Method in brief: as §1

[11] = compound: CCn1c(C(=O)N(C2CC2)C2CC2)cc2c3c(ncn3C)c(Nc3cc(C)n(C)n3)nc21
Method in brief: as §1

[12] = compound: CCn1cc(-c2ccnc3[nH]c(-c4cccc(CN(C)C)c4)cc23)c(-c2ccc(NC(=O)N(C)C)cc2)n1
Method in brief: as §1

[13] = compound: CN1CCC(CNc2ccc3ncc(-c4cccc(OC(F)(F)F)c4)n3n2)CC1
Method in brief: as §1

saracatinib = compound: CN1CCN(CCOc2cc(OC3CCOCC3)c3c(Nc4c(Cl)ccc5c4OCO5)ncnc3c2)CC1 [saracatinib]
Method in brief: as §1

sotrastaurin = compound: CN1CCN(c2nc(C3=C(c4c[nH]c5ccccc45)C(=O)NC3=O)c3ccccc3n2)CC1 [sotrastaurin]
Method in brief: as §1

Measured: log2 fold change

LIG4 (UniProt P49917)
inactive: ibrutinib 0.056 | [1] 0.174 | ralimetinib -0.001 | [2] -0.023 | [3] 0.013 | [4] -0.016 | [5] -0.021 | [6] 0.004 | [7] 0.015 | [8] 0.109 | vemurafenib 0.041 | [9] -0.034 | barasertib -0.04 | [10] -0.087 | volasertib -0.182 | [11] -0.027 | [12] -0.105 | [13] 0.018 | saracatinib 0.027 | sotrastaurin 0.048

LIMD1 (UniProt Q9UGP4)
inactive: ibrutinib 0.017 | [1] 0.014 | ralimetinib -0.028 | [2] 0.012 | [3] -0.013 | [4] 0.001 | [5] 0.079 | [6] 0.068 | [7] 0.029 | [8] -0.038 | vemurafenib 0.003 | [9] 0.013 | barasertib -0.023 | [10] 0.021 | volasertib -0.01 | [11] 0.002 | [12] -0.005 | [13] 0.003 | saracatinib 0.038 | sotrastaurin -0.038

LRRC8D (UniProt Q7L1W4)
inactive: ibrutinib -0.001 | [1] 0.035 | ralimetinib 0.021 | [2] -0.008 | [3] 0.001 | [4] -0.005 | [5] 0.026 | [6] -0.011 | [7] -0.003 | [8] -0.019 | vemurafenib 0.078 | [9] 0.006 | barasertib 0.059 | [10] 0 | volasertib -0.039 | [11] -0.03 | [12] -0.077 | [13] -0.022 | saracatinib 0.003 | sotrastaurin -0.005

LMBRD1 (UniProt Q9NUN5)
inactive: ibrutinib -0.114 | [1] -0.019 | ralimetinib -0.031 | [2] 0.051 | [3] 0.025 | [4] 0.004 | [5] -0.015 | [6] 0.075 | [7] -0.048 | [8] -0.055 | vemurafenib 0.066 | [9] -0.022 | barasertib -0.035 | [10] 0.072 | volasertib 0.07 | [11] -0.019 | [12] 0.091 | [13] 0.085 | saracatinib 0.039 | sotrastaurin 0.094

LCP2 (UniProt Q13094)
inactive: ibrutinib 0.055 | [1] -0.034 | ralimetinib 0.01 | [2] -0.005 | [3] 0.015 | [4] -0.032 | [5] -0.015 | [6] -0.021 | [7] 0.01 | [8] 0.008 | vemurafenib 0.002 | [9] -0.005 | barasertib 0.038 | [10] 0.081 | volasertib -0.022 | [11] 0.018 | [12] 0.007 | [13] -0.045 | saracatinib 0.011 | sotrastaurin 0.013

Quoted from the entries so far (2 entries):
LIMD1 (UniProt Q9UGP4)
inactive: ibrutinib 0.017 | [1] 0.014 | ralimetinib -0.028 | [2] 0.012 | [3] -0.013 | [4] 0.001 | [5] 0.079 | [6] 0.068 | [7] 0.029 | [8] -0.038 | vemurafenib 0.003 | [9] 0.013 | barasertib -0.023 | [10] 0.021 | volasertib -0.01 | [11] 0.002 | [12] -0.005 | [13] 0.003 | saracatinib 0.038 | sotrastaurin -0.038

LRRC8D (UniProt Q7L1W4)
inactive: ibrutinib -0.001 | [1] 0.035 | ralimetinib 0.021 | [2] -0.008 | [3] 0.001 | [4] -0.005 | [5] 0.026 | [6] -0.011 | [7] -0.003 | [8] -0.019 | vemurafenib 0.078 | [9] 0.006 | barasertib 0.059 | [10] 0 | volasertib -0.039 | [11] -0.03 | [12] -0.077 | [13] -0.022 | saracatinib 0.003 | sotrastaurin -0.005

(cont.)

LRRFIP1 (UniProt Q32MZ4)
inactive: ibrutinib -0.017 | [1] -0.011 | ralimetinib -0.008 | [2] -0.038 | [3] 0.015 | [4] -0.023 | [5] -0.028 | [6] 0.014 | [7] 0.01 | [8] -0.016 | vemurafenib 0.027 | [9] 0.006 | barasertib -0.017 | [10] 0.055 | volasertib 0.022 | [11] -0.023 | [12] -0.006 | [13] 0.045 | saracatinib 0.018 | sotrastaurin -0.001

LPIN1 isoform 7 (UniProt Q14693)
inactive: ibrutinib 0.02 | [1] 0.07 | ralimetinib 0.035 | [2] -0.025 | [3] -0.033 | [4] 0.066 | [5] 0.022 | [6] -0.016 | [7] 0.007 | [8] -0.009 | vemurafenib -0.057 | [9] 0.065 | barasertib 0.1 | [10] -0.057 | volasertib -0.002 | [11] -0.003 | [12] -0.052 | [13] -0.05 | saracatinib 0.024 | sotrastaurin 0.028

LSM14A isoform 2 (UniProt Q8ND56)
inactive: ibrutinib -0.056 | [1] -0.005 | ralimetinib -0.016 | [2] 0.022 | [3] -0.009 | [4] -0.005 | [5] 0.037 | [6] 0.036 | [7] -0.001 | [8] -0.028 | vemurafenib -0.097 | [9] 0.031 | barasertib 0.048 | [10] 0.092 | volasertib 0.02 | [11] 0.04 | [12] -0.073 | [13] 0.076 | saracatinib 0.003 | sotrastaurin 0.001
